Measured values taken from the supplement of paper PMC10849652.
This is one part of the list.

By UniProt entry, the sequences of proteins in these tests, tags left out. Where a name states a change or a piece, a line headed by the entry shows the natural chain unless it says otherwise.
UniProt Q00537: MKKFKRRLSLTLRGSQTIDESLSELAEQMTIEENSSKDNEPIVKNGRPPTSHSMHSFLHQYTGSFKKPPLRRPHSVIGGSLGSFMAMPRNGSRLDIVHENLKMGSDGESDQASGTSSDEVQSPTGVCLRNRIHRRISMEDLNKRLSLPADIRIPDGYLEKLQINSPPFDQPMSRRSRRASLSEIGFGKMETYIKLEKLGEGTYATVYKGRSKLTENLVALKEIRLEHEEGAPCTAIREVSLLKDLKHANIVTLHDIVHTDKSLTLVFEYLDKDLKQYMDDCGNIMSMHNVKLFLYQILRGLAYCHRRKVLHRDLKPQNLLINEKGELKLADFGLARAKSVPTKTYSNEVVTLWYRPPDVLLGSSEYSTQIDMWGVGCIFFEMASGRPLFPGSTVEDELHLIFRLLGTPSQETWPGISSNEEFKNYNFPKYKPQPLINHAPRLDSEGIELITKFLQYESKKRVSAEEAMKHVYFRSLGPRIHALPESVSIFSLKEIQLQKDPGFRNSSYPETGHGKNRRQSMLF
UniProt P50750, whole entry, looked up: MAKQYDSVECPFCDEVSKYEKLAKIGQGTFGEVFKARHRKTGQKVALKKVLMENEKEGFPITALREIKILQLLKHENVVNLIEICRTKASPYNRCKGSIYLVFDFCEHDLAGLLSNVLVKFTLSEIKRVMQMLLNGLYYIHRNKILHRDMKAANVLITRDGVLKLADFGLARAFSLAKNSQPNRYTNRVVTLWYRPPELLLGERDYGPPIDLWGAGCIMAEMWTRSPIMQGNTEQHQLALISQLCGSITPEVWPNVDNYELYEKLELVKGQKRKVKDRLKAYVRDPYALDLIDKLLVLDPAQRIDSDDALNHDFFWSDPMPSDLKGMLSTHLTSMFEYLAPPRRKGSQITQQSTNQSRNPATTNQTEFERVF
UniProt O75419: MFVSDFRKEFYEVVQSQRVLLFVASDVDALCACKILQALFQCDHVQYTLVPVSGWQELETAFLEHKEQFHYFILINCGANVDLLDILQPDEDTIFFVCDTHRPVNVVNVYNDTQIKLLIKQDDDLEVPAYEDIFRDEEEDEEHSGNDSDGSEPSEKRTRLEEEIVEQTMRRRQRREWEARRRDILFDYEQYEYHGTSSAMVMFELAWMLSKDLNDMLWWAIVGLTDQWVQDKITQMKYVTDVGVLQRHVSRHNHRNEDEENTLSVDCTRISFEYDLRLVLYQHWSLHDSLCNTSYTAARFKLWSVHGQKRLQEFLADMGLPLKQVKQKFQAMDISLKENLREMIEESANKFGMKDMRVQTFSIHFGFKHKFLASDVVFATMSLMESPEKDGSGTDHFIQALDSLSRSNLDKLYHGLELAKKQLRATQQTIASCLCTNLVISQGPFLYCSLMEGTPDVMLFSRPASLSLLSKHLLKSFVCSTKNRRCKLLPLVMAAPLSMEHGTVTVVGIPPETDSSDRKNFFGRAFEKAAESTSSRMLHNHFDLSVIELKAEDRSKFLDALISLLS
UniProt Q8N2Z9: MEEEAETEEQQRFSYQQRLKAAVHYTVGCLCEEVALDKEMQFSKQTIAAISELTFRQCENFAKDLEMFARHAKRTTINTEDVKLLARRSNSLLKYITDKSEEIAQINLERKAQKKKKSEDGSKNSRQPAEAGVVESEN
UniProt Q9UPN4: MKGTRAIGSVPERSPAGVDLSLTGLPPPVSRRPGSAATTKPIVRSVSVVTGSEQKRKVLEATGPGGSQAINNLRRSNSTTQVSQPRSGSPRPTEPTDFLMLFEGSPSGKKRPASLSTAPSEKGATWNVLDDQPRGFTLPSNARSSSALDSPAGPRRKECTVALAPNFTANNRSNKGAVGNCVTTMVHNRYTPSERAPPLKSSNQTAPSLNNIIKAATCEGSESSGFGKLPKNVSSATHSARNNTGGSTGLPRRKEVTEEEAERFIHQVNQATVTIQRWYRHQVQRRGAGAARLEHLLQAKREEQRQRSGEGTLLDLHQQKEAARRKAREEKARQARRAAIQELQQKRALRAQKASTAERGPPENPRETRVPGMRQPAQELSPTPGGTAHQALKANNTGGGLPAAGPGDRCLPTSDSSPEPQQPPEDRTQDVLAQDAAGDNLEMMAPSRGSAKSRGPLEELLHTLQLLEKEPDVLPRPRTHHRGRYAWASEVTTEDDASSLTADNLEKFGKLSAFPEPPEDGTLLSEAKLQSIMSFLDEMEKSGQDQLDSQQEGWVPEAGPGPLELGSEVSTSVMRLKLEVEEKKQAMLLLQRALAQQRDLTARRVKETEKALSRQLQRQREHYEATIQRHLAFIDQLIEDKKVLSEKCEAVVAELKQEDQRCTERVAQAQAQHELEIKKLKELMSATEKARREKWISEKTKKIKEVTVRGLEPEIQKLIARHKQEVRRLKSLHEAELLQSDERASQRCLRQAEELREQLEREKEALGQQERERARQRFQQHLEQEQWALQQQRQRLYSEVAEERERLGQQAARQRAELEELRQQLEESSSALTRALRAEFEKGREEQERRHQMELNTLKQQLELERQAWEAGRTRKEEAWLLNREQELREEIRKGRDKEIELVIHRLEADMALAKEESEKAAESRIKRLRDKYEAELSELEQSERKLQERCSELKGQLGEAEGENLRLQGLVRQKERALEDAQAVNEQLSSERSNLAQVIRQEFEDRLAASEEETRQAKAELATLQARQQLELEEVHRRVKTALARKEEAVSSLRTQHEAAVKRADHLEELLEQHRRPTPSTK
UniProt Q03701: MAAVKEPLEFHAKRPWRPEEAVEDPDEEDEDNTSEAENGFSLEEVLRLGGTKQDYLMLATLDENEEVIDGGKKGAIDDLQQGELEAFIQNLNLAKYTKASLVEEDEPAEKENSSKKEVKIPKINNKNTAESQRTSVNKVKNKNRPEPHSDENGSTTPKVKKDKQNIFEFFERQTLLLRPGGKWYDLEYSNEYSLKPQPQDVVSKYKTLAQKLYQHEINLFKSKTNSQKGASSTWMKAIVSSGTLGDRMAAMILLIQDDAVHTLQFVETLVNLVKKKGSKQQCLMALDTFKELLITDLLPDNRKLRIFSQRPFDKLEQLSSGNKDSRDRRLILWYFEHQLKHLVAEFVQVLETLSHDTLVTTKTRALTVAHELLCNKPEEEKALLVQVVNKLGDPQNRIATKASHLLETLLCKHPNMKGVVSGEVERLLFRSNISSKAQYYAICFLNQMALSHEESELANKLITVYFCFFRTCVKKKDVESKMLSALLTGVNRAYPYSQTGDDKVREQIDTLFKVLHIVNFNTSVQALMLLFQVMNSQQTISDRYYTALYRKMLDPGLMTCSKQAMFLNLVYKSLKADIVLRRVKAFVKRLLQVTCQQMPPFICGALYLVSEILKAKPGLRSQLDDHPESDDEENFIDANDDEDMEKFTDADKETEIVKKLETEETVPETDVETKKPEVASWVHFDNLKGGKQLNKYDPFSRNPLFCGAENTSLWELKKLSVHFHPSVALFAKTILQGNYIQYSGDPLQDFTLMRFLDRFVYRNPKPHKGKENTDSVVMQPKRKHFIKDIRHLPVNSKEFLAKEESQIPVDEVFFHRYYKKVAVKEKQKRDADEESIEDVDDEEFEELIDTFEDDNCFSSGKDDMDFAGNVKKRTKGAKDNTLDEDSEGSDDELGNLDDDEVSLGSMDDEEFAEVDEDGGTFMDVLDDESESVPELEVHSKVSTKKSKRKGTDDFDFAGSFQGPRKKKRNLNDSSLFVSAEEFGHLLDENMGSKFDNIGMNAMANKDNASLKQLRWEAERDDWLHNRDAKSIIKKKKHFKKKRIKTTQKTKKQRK
UniProt Q711Q0: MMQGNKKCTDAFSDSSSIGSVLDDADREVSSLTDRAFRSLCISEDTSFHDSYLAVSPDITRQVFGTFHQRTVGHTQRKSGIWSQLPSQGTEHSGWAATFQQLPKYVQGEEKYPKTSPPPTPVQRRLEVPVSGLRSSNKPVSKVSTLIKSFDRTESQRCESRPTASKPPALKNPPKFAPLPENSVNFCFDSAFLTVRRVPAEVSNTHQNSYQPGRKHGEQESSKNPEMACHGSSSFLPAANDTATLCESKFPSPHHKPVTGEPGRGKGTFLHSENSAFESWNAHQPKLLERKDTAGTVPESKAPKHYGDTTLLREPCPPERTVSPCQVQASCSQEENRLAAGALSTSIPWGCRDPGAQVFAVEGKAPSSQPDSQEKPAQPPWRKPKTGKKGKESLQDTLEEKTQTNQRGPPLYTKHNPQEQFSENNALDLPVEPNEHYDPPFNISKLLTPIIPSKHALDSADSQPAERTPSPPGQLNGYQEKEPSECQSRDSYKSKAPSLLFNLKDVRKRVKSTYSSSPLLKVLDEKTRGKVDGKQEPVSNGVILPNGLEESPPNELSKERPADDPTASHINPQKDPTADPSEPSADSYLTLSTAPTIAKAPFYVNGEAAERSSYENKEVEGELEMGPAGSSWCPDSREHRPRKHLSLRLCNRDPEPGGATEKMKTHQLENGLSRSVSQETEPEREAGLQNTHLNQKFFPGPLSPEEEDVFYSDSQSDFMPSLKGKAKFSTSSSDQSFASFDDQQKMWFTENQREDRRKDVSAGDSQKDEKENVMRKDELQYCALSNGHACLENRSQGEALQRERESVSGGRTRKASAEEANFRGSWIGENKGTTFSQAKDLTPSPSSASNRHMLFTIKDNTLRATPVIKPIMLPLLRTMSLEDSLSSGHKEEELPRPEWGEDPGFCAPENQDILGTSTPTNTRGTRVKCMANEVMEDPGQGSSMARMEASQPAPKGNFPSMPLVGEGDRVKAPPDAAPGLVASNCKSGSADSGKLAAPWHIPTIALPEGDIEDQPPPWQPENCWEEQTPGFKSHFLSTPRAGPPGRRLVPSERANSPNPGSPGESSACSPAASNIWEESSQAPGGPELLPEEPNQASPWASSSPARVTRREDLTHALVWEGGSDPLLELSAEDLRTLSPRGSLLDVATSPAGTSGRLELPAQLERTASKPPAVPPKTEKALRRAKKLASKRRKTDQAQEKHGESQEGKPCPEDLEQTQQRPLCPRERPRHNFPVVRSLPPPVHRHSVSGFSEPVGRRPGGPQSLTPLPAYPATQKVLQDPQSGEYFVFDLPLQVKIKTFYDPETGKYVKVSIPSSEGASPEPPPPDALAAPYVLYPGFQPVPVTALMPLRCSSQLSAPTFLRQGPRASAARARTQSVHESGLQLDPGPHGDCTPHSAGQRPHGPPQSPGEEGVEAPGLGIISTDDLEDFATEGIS
UniProt P42773: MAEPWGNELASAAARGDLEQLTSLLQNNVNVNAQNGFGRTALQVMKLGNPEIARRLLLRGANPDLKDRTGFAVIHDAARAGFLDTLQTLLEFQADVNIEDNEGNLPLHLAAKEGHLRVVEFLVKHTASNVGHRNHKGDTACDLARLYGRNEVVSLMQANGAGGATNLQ
UniProt Q9NXV6: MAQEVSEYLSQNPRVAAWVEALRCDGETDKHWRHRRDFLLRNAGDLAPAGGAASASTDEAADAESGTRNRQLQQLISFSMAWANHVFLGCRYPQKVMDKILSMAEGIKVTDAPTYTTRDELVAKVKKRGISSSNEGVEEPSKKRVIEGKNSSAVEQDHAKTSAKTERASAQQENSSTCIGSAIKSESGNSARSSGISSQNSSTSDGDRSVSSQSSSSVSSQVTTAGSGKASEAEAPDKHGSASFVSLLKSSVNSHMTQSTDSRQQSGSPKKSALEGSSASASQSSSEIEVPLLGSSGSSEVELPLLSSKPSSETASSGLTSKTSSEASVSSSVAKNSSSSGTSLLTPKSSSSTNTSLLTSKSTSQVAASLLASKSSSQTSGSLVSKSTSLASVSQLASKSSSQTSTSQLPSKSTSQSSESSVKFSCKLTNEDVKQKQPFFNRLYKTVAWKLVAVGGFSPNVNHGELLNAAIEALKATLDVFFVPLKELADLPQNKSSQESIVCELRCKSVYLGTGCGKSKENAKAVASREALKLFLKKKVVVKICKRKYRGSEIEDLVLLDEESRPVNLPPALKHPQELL
UniProt Q5VV42: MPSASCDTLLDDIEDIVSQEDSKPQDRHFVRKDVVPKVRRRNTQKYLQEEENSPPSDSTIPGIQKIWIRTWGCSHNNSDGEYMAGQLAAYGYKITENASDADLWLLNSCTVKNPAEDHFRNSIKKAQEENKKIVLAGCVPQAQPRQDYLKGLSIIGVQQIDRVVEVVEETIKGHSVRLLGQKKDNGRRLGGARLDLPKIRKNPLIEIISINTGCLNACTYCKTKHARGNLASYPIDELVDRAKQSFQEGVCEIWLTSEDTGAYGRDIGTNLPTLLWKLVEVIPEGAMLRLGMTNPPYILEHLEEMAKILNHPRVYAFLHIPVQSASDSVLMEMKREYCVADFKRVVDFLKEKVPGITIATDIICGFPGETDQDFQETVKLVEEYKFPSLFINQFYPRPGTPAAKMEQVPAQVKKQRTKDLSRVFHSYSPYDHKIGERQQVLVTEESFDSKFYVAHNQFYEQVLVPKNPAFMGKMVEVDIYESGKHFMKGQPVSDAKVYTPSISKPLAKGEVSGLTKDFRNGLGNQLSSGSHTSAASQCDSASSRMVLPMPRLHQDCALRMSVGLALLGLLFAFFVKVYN
UniProt Q9NRR3: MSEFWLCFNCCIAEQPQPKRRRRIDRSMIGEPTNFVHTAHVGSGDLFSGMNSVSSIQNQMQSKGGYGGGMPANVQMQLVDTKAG

What was measured:
Test in all cases: log2 fold change, soluble protein after heating vs DMSO (PISA); higher = thermal stabilisation; K562 lysate, 10 uM; active = over 0.2 and 3.5 SD of the protein, either way, in both replicates (recomputed)
erlotinib = compound: C#Cc1cccc(Nc2ncnc3cc(OCCOC)c(OCCOC)cc23)c1 [erlotinib]
Procedure, shortened: (§1)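 The values are log-two fold changes in thermal stability compared with solvent controls and come from duplicates. They were obtained by TMTpro 16plex LC-MS/MS, with channel sums equalised, on the supernatant after 21,000xg for 90 min. That supernatant came from crude K562 extract at 1 mg/mL protein treated with 10 μM compound for 30 min, heated for 3 min across 48°C-58°C, pooled and brought to 0.5% NP-40 at 4°C.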

[1] = compound: C/C(=N\NC(=O)C1=CC(=CC=C1)S(=O)(=O)N2CCOCC2)/C3=C(C=CC(=C3)Cl)O
Procedure, shortened: as §1

[2] = compound: C1=CC(=CC=C1C2=NC3=C(N2)C=C(C=C3)C(=O)N)OC4=CC=C(C=C4)Cl
Procedure, shortened: as §1

[3] = compound: C1=CC2=C(C=CC(=C2)/C=C\3/C(=O)NC(=NCC4=CC=CS4)S3)N=C1
Procedure, shortened: as §1

[4] = compound: C1=CC2=NC=CN=C2C=C1/C=C/3\C(=O)NC(=O)S3
Procedure, shortened: as §1

[5] = compound: C1=CC=C(C=C1)C2=NC(=C(N2)C3=CC=NC=C3)C4=CC(=C(C=C4)Cl)O
Procedure, shortened: as §1

[6] = compound: C1=CC=C2C(=C1)C3=NNC4=CC=CC(=C43)C2=O
Procedure, shortened: as §1

[7] = compound: C1CCN(C1)C(=O)NC2=CC=CC(=C2)NC3=NC=C(C(=N3)NCCC4=CN=CN4)Br
Procedure, shortened: as §1

[8] = compound: C1CN(CCC1(CC2=CC=C(C=C2)Cl)N)C3=NC=NC4=C3C=CN4
Procedure, shortened: as §1

IRAK-1-4 Inhibitor I = compound: C1COCCN1CCN2C3=CC=CC=C3N=C2NC(=O)C4=CC(=CC=C4)[N+](=O)[O-] [IRAK-1-4 Inhibitor I]
Procedure, shortened: as §1

Measured: log2 fold change

CDC42 isoform 1 (UniProt P60953)
inactive: erlotinib 0 | [1] 0.024 | [2] 0.005 | [3] -0.017 | [4] 0 | [5] 0.05 | [6] -0.036 | [7] 0 | [8] 0.056 | IRAK-1-4 Inhibitor I 0.025

CEP97 (UniProt Q8IW35)
inactive: erlotinib 0.031 | [1] 0.018 | [2] 0.001 | [3] 0.012 | [4] 0.001 | [5] 0.015 | [6] -0.065 | [7] 0.034 | [8] -0.03 | IRAK-1-4 Inhibitor I 0.002

CELF1 isoform 4 (UniProt Q92879)
inactive: erlotinib -0.101 | [1] -0.039 | [2] 0.013 | [3] 0.055 | [4] 0 | [5] -0.031 | [6] -0.03 | [7] -0.002 | [8] -0.043 | IRAK-1-4 Inhibitor I -0.045

CENPH (UniProt Q9H3R5)
inactive: erlotinib 0.018 | [1] -0.001 | [2] 0.021 | [3] 0.042 | [4] -0.037 | [5] 0.017 | [6] -0.039 | [7] 0.001 | [8] -0.019 | IRAK-1-4 Inhibitor I 0.046

Two successive records already listed, quoted:
CEP97 (UniProt Q8IW35)
inactive: erlotinib 0.031 | [1] 0.018 | [2] 0.001 | [3] 0.012 | [4] 0.001 | [5] 0.015 | [6] -0.065 | [7] 0.034 | [8] -0.03 | IRAK-1-4 Inhibitor I 0.002

CELF1 isoform 4 (UniProt Q92879)
inactive: erlotinib -0.101 | [1] -0.039 | [2] 0.013 | [3] 0.055 | [4] 0 | [5] -0.031 | [6] -0.03 | [7] -0.002 | [8] -0.043 | IRAK-1-4 Inhibitor I -0.045

Carrying on:

CDK17 isoform 2 (UniProt Q00537)
inactive: erlotinib -0.156 | [1] -0.007 | [2] 0.173 | [3] 0.099 | [4] -0.114 | [5] 0.005 | [6] 0.046 | [7] 0.124 | [8] 0.068 | IRAK-1-4 Inhibitor I 0.055

CFH (UniProt P08603)
inactive: erlotinib 0.019 | [1] 0.202 | [2] 0.025 | [3] 0.019 | [4] -0.096 | [5] 0.054 | [6] -0.048 | [7] -0.09 | [8] 0.03 | IRAK-1-4 Inhibitor I -0.046

CDK9 isoform 2 (UniProt P50750)
inactive: erlotinib -0.055 | [1] -0.054 | [2] 0.195 | [3] 0.019 | [4] 0.02 | [5] -0.01 | [6] 0.019 | [7] 0.102 | [8] 0.005 | IRAK-1-4 Inhibitor I -0.002

CDC25C (UniProt P30307)
inactive: erlotinib 0.007 | [1] -0.157 | [2] -0.061 | [3] 0.042 | [4] -0.031 | [5] 0.026 | [6] -0.148 | [7] -0.035 | [8] -0.058 | IRAK-1-4 Inhibitor I -0.039

CDC45 isoform 3 (UniProt O75419)
inactive: erlotinib 0.035 | [1] -0.008 | [2] -0.065 | [3] 0.029 | [4] -0.005 | [5] -0.022 | [6] -0.017 | [7] -0.014 | [8] -0.004 | IRAK-1-4 Inhibitor I 0.066

CEP44 (UniProt Q9C0F1)
inactive: erlotinib -0.016 | [1] 0.005 | [2] 0.002 | [3] 0.031 | [4] -0.006 | [5] 0.012 | [6] 0.075 | [7] 0.017 | [8] 0.007 | IRAK-1-4 Inhibitor I 0.026

CERS2 (UniProt Q96G23)
inactive: erlotinib 0.029 | [1] -0.033 | [2] -0.019 | [3] 0.063 | [4] -0.031 | [5] -0.04 | [6] -0.015 | [7] 0.051 | [8] 0.024 | IRAK-1-4 Inhibitor I -0.083

CDCP1 (UniProt Q9H5V8)
inactive: erlotinib -0.04 | [1] 0.086 | [2] 0.04 | [3] -0.011 | [4] 0.011 | [5] 0.025 | [6] 0.02 | [7] 0.029 | [8] 0.008 | IRAK-1-4 Inhibitor I 0.063

CENPS (UniProt Q8N2Z9)
inactive: erlotinib -0.029 | [1] -0.039 | [2] 0.034 | [3] -0.023 | [4] -0.004 | [5] 0.03 | [6] 0.043 | [7] 0.008 | [8] 0.023 | IRAK-1-4 Inhibitor I -0.018

CDK6 (UniProt Q00534)
inactive: erlotinib -0.009 | [1] 0.003 | [2] 0.012 | [3] 0.006 | [4] 0.01 | [5] 0.033 | [6] 0.071 | [7] -0.005 | [8] -0.03 | IRAK-1-4 Inhibitor I -0.016

CFAP36 (UniProt Q96G28)
inactive: erlotinib -0.007 | [1] 0.042 | [2] 0.013 | [3] -0.004 | [4] 0.008 | [5] 0.034 | [6] 0.002 | [7] 0.008 | [8] 0.027 | IRAK-1-4 Inhibitor I -0.003

CEP290 (UniProt O15078)
inactive: erlotinib -0.06 | [1] -0.036 | [2] -0.079 | [3] -0.04 | [4] 0.047 | [5] -0.156 | [6] 0.016 | [7] 0 | [8] -0.029 | IRAK-1-4 Inhibitor I 0.044

CEP131 (UniProt Q9UPN4)
inactive: erlotinib -0.26 | [1] -0.014 | [2] 0.052 | [3] -0.065 | [4] 0.063 | [5] 0.004 | [6] -0.071 | [7] 0.004 | [8] -0.06 | IRAK-1-4 Inhibitor I 0.034

CEBPZ (UniProt Q03701)
inactive: erlotinib 0.028 | [1] 0.038 | [2] -0.018 | [3] -0.007 | [4] 0.039 | [5] -0.012 | [6] 0.068 | [7] 0.012 | [8] 0.023 | IRAK-1-4 Inhibitor I 0.001

CEFIP (UniProt Q711Q0)
inactive: erlotinib 0 | [1] -0.016 | [2] -0.06 | [3] -0.118 | [4] 0.048 | [5] 0.168 | [6] 0.048 | [7] -0.066 | [8] 0.071 | IRAK-1-4 Inhibitor I 0.073

CDKN2C (UniProt P42773)
inactive: erlotinib 0.028 | [1] -0.017 | [2] -0.035 | [3] 0.042 | [4] 0.008 | [5] 0.001 | [6] -0.034 | [7] -0.028 | [8] 0.168 | IRAK-1-4 Inhibitor I -0.018

CETN2 (UniProt P41208)
inactive: erlotinib 0.02 | [1] 0.018 | [2] 0.017 | [3] -0.089 | [4] -0.066 | [5] -0.007 | [6] -0.043 | [7] -0.007 | [8] 0.012 | IRAK-1-4 Inhibitor I -0.068

CDC16 (UniProt Q13042)
inactive: erlotinib -0.006 | [1] -0.067 | [2] -0.051 | [3] 0.031 | [4] -0.009 | [5] 0.006 | [6] 0.019 | [7] 0.027 | [8] -0.056 | IRAK-1-4 Inhibitor I -0.004

CERT isoform 3 (UniProt Q9Y5P4)
inactive: erlotinib -0.004 | [1] -0.003 | [2] 0.008 | [3] 0.019 | [4] -0.018 | [5] -0.002 | [6] -0.008 | [7] 0.005 | [8] 0.019 | IRAK-1-4 Inhibitor I -0.018

CENPK (UniProt Q9BS16)
inactive: erlotinib -0.036 | [1] -0.097 | [2] 0.063 | [3] -0.055 | [4] 0.007 | [5] -0.024 | [6] -0.088 | [7] -0.018 | [8] 0.01 | IRAK-1-4 Inhibitor I 0.011

CDKN2AIP (UniProt Q9NXV6)
inactive: erlotinib -0.047 | [1] 0.067 | [2] 0.072 | [3] -0.01 | [4] -0.074 | [5] -0.006 | [6] -0.079 | [7] -0.038 | [8] 0 | IRAK-1-4 Inhibitor I 0.048

CDK13 (UniProt Q14004)
inactive: erlotinib -0.136 | [1] -0.041 | [2] -0.089 | [3] -0.052 | [4] 0.01 | [5] -0.071 | [6] 0.127 | [7] 0.091 | [8] -0.025 | IRAK-1-4 Inhibitor I -0.044

CDK12 (UniProt Q9NYV4)
inactive: erlotinib 0.018 | [1] -0.063 | [2] 0.036 | [3] -0.02 | [4] -0.053 | [5] 0.005 | [6] 0.049 | [7] 0.075 | [8] -0.004 | IRAK-1-4 Inhibitor I 0.008

CDC123 (UniProt O75794)
inactive: erlotinib 0.013 | [1] -0.02 | [2] -0.011 | [3] -0.006 | [4] -0.06 | [5] -0.006 | [6] 0.013 | [7] 0 | [8] -0.004 | IRAK-1-4 Inhibitor I -0.025

CDKAL1 (UniProt Q5VV42)
inactive: erlotinib -0.019 | [1] 0.009 | [2] 0.001 | [3] 0.065 | [4] -0.03 | [5] 0.023 | [6] -0.037 | [7] -0.004 | [8] 0.027 | IRAK-1-4 Inhibitor I -0.024

CDC42SE2 (UniProt Q9NRR3)
inactive: erlotinib 0 | [1] 0.018 | [2] -0.014 | [3] 0.122 | [4] -0.036 | [5] 0.065 | [6] -0.119 | [7] 0.051 | [8] 0.063 | IRAK-1-4 Inhibitor I 0.053
